From the supplement of paper PMC8007513
This is one part of the list. Repeats are few or missing, and single values can be far off.

These compounds were tested on Saccharomyces cerevisiae BY4743 (assay: growth (OD600) with compound + IPBC relative to untreated control; higher = less growth inhibition). Conditions: compound concentration: 133 uM; IPBC concentration: 0.5 ug/ml; 20 h.
Experimental: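 NMCCC compounds (133 uM) combined with IPBC (0.5 ug/ml) against Saccharomyces cerevisiae BY4743 in YPD, 96-well plates. Growth was read as OD600 at 20 h and expressed as % of the untreated control. Single pass.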

Structure (SMILES) | growth
COC(=O)CNC(=O)CSc1nnc(-c2ccccc2C)n1-c1ccccc1 + CCCCNC(=O)OCC#CI [3-iodo-2-propynyl butylcarbamate (IPBC)] | 80%
O=C(O)c1nnn(-c2ccccc2Cl)c1-c1ccncc1 + CCCCNC(=O)OCC#CI [3-iodo-2-propynyl butylcarbamate (IPBC)] | 84.9%
CCC(C(=O)N1CCOCC1)n1c(C(=O)OC)cc2sc(C)cc21 (centres undefined) + CCCCNC(=O)OCC#CI [3-iodo-2-propynyl butylcarbamate (IPBC)] | 110%
CCN(CC)CCNC(=O)CN1\C=N/C2=C(C(=NO2)C)C1=O + CCCCNC(=O)OCC#CI [3-iodo-2-propynyl butylcarbamate (IPBC)] | 97.6%
COC(=O)c1sc(-n2cccc2)c(C(=O)OC)c1C + CCCCNC(=O)OCC#CI [3-iodo-2-propynyl butylcarbamate (IPBC)] | 98.4%
CC(NC(=O)CSc1nc(O)c(C#N)c(-c2ccc(Cl)cc2)n1)c1ccccc1 (centres undefined) + CCCCNC(=O)OCC#CI [3-iodo-2-propynyl butylcarbamate (IPBC)] | 106%
CC1=CC=C(C=C1C)/C2=C(C)/C(=N\[S]2(=O)=O)NC3=CC=C(Br)C(=C3)C + CCCCNC(=O)OCC#CI [3-iodo-2-propynyl butylcarbamate (IPBC)] | 104%
COc1ccc(C(CNC(=O)c2ccc(NS(=O)(=O)c3ccc(F)c(C)c3)cc2)N(C)C)cc1 (centres undefined) + CCCCNC(=O)OCC#CI [3-iodo-2-propynyl butylcarbamate (IPBC)] | 113%
CC\1(C)CC2=CC=CC=C2\C(=N1)CC(O)(C(F)(F)F)C(F)(F)F + CCCCNC(=O)OCC#CI [3-iodo-2-propynyl butylcarbamate (IPBC)] | 101%
NC(=O)c1sc2nc(-c3cccs3)ccc2c1N + CCCCNC(=O)OCC#CI [3-iodo-2-propynyl butylcarbamate (IPBC)] | 86.7%
CSc1nc(O)n2ncc(-c3ccc(F)cc3)c2n1 + CCCCNC(=O)OCC#CI [3-iodo-2-propynyl butylcarbamate (IPBC)] | 99.3%
CCOC(=O)c1nc2ccccc2nc1Nc1cc(C)ccc1C + CCCCNC(=O)OCC#CI [3-iodo-2-propynyl butylcarbamate (IPBC)] | 103%
CCOC(=O)c1cc2c(OC)ccc(OC)c2n1CC(=O)c1ccccc1 + CCCCNC(=O)OCC#CI [3-iodo-2-propynyl butylcarbamate (IPBC)] | 70%
CC(C)CN1\C=C(\NC(=O)NCC2CCCO2)C3=CC=CC=C3C1=O (centres undefined) + CCCCNC(=O)OCC#CI [3-iodo-2-propynyl butylcarbamate (IPBC)] | 105%
CC(=O)c1ccc(S(=O)(=O)N(C)CC(=O)Nc2ncccc2C)cc1 + CCCCNC(=O)OCC#CI [3-iodo-2-propynyl butylcarbamate (IPBC)] | 93.5%
O=C(CNc1nccs1)c1c[nH]c2ccccc12 + CCCCNC(=O)OCC#CI [3-iodo-2-propynyl butylcarbamate (IPBC)] | 89.8%
CN(C)C(=O)C(OC(=O)c1ccc2c(c1)CCC(=O)N2)c1ccccc1 (centres undefined) + CCCCNC(=O)OCC#CI [3-iodo-2-propynyl butylcarbamate (IPBC)] | 93.6%
Cc1oc(-c2ccccc2)nc1COC(=O)c1ccc(S(=O)(=O)C(F)F)cc1 + CCCCNC(=O)OCC#CI [3-iodo-2-propynyl butylcarbamate (IPBC)] | 92.7%
CCCNC(=O)CN(C)C(=O)c1ccc(-c2cc(Cl)ccc2Cl)o1 + CCCCNC(=O)OCC#CI [3-iodo-2-propynyl butylcarbamate (IPBC)] | 73.3%
COC(=O)c1c(C)[nH]c(C(=O)Cn2nnc(-c3ccc(C(C)C)cc3)n2)c1C + CCCCNC(=O)OCC#CI [3-iodo-2-propynyl butylcarbamate (IPBC)] | 114%

2 successive entries from above, quoted:
Structure (SMILES) | growth
COC(=O)c1sc(-n2cccc2)c(C(=O)OC)c1C + CCCCNC(=O)OCC#CI [3-iodo-2-propynyl butylcarbamate (IPBC)] | 98.4%
CC(NC(=O)CSc1nc(O)c(C#N)c(-c2ccc(Cl)cc2)n1)c1ccccc1 (centres undefined) + CCCCNC(=O)OCC#CI [3-iodo-2-propynyl butylcarbamate (IPBC)] | 106%

(list continues)

Structure (SMILES) | growth
CCc1nnc(NC(=O)C(=O)c2cc(C)n(-c3ccc(F)cc3)c2C)s1 + CCCCNC(=O)OCC#CI [3-iodo-2-propynyl butylcarbamate (IPBC)] | 99.3%
CNS(=O)(=O)Cc1ccc(CNC(=O)Nc2ccccc2F)cc1 + CCCCNC(=O)OCC#CI [3-iodo-2-propynyl butylcarbamate (IPBC)] | 84.1%
COC(=O)c1sccc1NS(=O)(=O)c1ccc(Cl)s1 + CCCCNC(=O)OCC#CI [3-iodo-2-propynyl butylcarbamate (IPBC)] | 87.6%
CC(C)C[C@@H](C(=O)Nc1cccnc1)N1Cc2ccccc2C1=O + CCCCNC(=O)OCC#CI [3-iodo-2-propynyl butylcarbamate (IPBC)] | 96%
Cc1nc(Nc2ccc(F)cc2Cl)c2cc(C)sc2n1 + CCCCNC(=O)OCC#CI [3-iodo-2-propynyl butylcarbamate (IPBC)] | 86.9%
CCCOc1ccc(C(F)(F)F)cc1NC(=O)C1CSC2(C)CCC(=O)N12 (centres undefined) + CCCCNC(=O)OCC#CI [3-iodo-2-propynyl butylcarbamate (IPBC)] | 82.2%
COc1ccc(Cl)cc1-c1n[nH]c(SCC(=O)NC(C)(C#N)C(C)C)n1 (centres undefined) + CCCCNC(=O)OCC#CI [3-iodo-2-propynyl butylcarbamate (IPBC)] | 109%
COc1ccc(Cn2ccnc2SCC(=O)NC2CCCCC2)cc1 + CCCCNC(=O)OCC#CI [3-iodo-2-propynyl butylcarbamate (IPBC)] | 97.1%
CCCCn1c(COC(=O)c2ccc(Cl)s2)nc2cc(S(N)(=O)=O)ccc21 + CCCCNC(=O)OCC#CI [3-iodo-2-propynyl butylcarbamate (IPBC)] | 86.8%
O=C(COC(=O)c1ccccc1NC(=O)c1ccsc1)NC1CCCC1 + CCCCNC(=O)OCC#CI [3-iodo-2-propynyl butylcarbamate (IPBC)] | 97.7%
COC(=O)CN(c1cc(C)cc(C)c1)S(=O)(=O)c1cc2c(cc1C)N(C(C)=O)CCO2 + CCCCNC(=O)OCC#CI [3-iodo-2-propynyl butylcarbamate (IPBC)] | 104%
COC(=O)CNC(=O)CSc1nc(C2CC2)n(-c2ccccc2)n1 + CCCCNC(=O)OCC#CI [3-iodo-2-propynyl butylcarbamate (IPBC)] | 96.5%
CC(C)(C)c1ccc(C(=O)NCC(=O)OCC(=O)NCc2ccco2)cc1 + CCCCNC(=O)OCC#CI [3-iodo-2-propynyl butylcarbamate (IPBC)] | 101%
CC(C)c1nccn1-c1ccc(NC(=O)c2ccc(N(C)C)cc2)cc1 + CCCCNC(=O)OCC#CI [3-iodo-2-propynyl butylcarbamate (IPBC)] | 94.2%
Cc1cc(SCC(=O)OC(C)C(=O)c2ccc(NS(C)(=O)=O)cc2)nc2ccccc12 (centres undefined) + CCCCNC(=O)OCC#CI [3-iodo-2-propynyl butylcarbamate (IPBC)] | 109%
O=C(CCC(=O)N1CCOc2ccc(Cl)cc21)NCC1CCCO1 (centres undefined) + CCCCNC(=O)OCC#CI [3-iodo-2-propynyl butylcarbamate (IPBC)] | 103%
COC1=CC=C(CCNC(=O)\C2=C\C3=C(CS2)C(=C(C)S3)C)C=C1OC + CCCCNC(=O)OCC#CI [3-iodo-2-propynyl butylcarbamate (IPBC)] | 92.2%
CCOC(=O)Cn1c(-c2cnn(CC)c2)nc2ccccc21 + CCCCNC(=O)OCC#CI [3-iodo-2-propynyl butylcarbamate (IPBC)] | 103%
CC(C)N(C(=O)CSc1nnc(-c2cccnc2)n1-c1cccc(C(F)(F)F)c1)C(C)C + CCCCNC(=O)OCC#CI [3-iodo-2-propynyl butylcarbamate (IPBC)] | 101%
